Test results reported in paper PMC6643443.
No constants are given. Whether binding was seen depends on the method and setting. For some assays here: In cells and extracts the contact can be indirect. Some results given as binding are weak or reduced against the parent protein; the word gives no strength. For some assays here: Tags and fused reporters may be left off the sequences shown.

The chains behind the UniProt entries cited, without tags or fusion partners.
UniProt P63280: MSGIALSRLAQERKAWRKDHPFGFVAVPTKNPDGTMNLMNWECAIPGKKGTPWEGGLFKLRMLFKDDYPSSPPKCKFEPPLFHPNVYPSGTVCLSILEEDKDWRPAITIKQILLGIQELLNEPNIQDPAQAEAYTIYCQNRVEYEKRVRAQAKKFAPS

How the values were obtained:
[1] = molecular target: T1, Interferon regulatory factor 1 (IRF1), endogenous in ox-LDL loaded macrophages (mouse (endogenous in peritoneal macrophages)) (UniProt P15314); experiment: co-IP; immunoprecipitation with control IgG or an anti-IRF1 antibody from lysates of ox-LDL incubated macrophages with or without LPS challenge (50 pg/mL), with scramble siRNA or si-Myd88; immunoblot for Myd88 or Ubc9; endogenous proteins
T1 sequence: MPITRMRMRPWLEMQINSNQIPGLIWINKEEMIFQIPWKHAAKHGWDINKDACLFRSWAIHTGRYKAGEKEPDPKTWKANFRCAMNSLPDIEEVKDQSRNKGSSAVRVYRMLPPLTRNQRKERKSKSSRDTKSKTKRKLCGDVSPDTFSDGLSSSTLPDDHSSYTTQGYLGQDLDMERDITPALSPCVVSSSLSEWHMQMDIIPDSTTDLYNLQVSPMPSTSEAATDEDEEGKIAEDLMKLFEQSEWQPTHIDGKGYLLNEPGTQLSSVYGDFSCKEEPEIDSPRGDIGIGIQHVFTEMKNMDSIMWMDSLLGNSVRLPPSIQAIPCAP

[2] = molecular target: T2, IRF1, recombinant protein of the GST precipitation assay (UniProt P15314); experiment: pull-down; glutathione-S-transferase (GST) precipitation assay using recombinant proteins; both purified
T2 sequence: T1 sequence

Substance	binding [1]	binding [2]
Ubc9, SUMO E2-conjugating enzyme, endogenous in ox-LDL loaded macrophages (from UniProt P63280 1-158)	binds	–
Ubc9, recombinant protein of the GST precipitation assay (from UniProt P63280 1-158) (enzyme)	–	binds
